Test [1] concerns the target platelet integrin αIIbβ3 on washed human platelets (human (endogenous in human platelets)) (UniProt P08514+P05106). The test can be described thus: flow cytometry on cells; binding of Oregon Green fibrinogen (OgFg) to washed human platelets in the presence of PSG proteins (about 5 to 100 or 200 µg/ml), 10 min RT before and 10 min after 3.4 µM TRAP; in separate series 250 nM U46619, 10 µM ADP or 25 µM epinephrine as agonist; TRAP-activated set at 100%, resting at 0%; only the binder purified.

Amino acid sequences for entries named in this document (tags omitted). A change or cut given only in a name is not applied to a line headed by its entry. Residues count along the entry.
UniProt P08514: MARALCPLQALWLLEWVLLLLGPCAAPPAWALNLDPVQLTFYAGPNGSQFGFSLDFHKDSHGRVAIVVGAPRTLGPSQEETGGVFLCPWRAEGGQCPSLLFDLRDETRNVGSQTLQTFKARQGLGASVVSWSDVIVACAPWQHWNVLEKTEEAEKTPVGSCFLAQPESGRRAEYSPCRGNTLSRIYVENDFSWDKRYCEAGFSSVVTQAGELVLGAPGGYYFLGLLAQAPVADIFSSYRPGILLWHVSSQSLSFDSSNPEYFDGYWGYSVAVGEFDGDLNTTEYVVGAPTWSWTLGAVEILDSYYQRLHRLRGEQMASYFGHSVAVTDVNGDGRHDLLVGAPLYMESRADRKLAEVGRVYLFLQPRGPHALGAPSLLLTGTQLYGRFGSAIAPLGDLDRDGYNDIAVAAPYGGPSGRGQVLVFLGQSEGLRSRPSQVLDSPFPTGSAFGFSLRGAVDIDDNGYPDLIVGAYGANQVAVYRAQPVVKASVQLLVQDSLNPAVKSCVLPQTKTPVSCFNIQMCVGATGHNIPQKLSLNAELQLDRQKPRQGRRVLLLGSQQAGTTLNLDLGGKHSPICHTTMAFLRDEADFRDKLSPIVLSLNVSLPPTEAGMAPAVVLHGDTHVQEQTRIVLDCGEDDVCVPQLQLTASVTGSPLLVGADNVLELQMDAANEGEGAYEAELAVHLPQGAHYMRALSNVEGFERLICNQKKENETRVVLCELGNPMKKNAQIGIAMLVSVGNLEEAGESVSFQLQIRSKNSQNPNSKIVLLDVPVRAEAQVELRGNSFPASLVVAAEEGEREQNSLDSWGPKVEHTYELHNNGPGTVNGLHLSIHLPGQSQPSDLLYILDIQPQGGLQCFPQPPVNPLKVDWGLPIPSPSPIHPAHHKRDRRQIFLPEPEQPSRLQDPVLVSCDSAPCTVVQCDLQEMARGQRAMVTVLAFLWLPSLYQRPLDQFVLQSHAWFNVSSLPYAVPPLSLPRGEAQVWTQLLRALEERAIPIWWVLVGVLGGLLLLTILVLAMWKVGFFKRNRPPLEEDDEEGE
UniProt P05106: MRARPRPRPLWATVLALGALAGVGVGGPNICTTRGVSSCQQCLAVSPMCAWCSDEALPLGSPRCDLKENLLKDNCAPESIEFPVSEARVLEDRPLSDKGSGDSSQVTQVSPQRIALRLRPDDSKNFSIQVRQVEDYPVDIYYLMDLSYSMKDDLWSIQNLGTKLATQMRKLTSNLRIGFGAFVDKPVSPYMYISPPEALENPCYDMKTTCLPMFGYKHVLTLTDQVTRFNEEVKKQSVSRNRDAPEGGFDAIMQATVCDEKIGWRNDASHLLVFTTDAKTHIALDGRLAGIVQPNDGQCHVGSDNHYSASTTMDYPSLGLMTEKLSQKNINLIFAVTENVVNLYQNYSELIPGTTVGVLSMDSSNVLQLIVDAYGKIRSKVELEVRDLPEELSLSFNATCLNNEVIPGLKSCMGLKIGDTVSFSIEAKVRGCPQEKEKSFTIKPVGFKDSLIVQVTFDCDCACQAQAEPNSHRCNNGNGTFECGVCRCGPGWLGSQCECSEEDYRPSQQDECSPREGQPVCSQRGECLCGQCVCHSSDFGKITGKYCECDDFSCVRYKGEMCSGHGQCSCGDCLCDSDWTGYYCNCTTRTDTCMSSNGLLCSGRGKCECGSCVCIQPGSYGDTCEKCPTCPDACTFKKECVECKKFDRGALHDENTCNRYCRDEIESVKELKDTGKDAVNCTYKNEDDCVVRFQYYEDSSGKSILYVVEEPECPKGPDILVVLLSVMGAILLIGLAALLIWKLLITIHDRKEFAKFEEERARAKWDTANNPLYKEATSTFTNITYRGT
UniProt Q00887, residues 35-426: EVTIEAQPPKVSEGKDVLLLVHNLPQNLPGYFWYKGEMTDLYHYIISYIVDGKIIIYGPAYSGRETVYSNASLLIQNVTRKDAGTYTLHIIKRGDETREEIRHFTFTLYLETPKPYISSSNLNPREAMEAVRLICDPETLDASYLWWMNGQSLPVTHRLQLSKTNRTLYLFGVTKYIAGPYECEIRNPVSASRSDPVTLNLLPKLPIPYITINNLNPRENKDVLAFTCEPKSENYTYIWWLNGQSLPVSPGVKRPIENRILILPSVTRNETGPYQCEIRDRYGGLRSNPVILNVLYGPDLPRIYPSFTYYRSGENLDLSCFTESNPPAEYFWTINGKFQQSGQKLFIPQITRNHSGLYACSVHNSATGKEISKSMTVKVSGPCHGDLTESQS
UniProt P11464, residues 35-419: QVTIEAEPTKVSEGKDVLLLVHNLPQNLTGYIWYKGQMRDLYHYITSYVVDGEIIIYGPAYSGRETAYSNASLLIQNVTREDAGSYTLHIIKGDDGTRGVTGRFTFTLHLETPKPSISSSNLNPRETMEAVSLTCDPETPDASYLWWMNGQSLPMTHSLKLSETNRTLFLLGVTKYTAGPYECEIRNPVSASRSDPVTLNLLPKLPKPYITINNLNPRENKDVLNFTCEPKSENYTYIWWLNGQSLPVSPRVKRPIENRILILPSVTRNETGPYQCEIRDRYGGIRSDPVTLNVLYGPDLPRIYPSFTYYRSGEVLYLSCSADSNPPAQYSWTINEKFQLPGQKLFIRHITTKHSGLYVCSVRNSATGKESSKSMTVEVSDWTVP

Test [2] addresses T1, human integrin αIIbβ3 in a stably transfected CHO cell line (human) (UniProt P08514+P05106). The test can be described thus: fluorescent ligand binding to adherent cells (LI-COR Odyssey plate scan); 50 µg/ml Dylight-800 labelled PSG1 on αIIbβ3 dual-transfected or mock-transfected CHO-K1 cells in 96-well plates, 30 min at 37°C; washed, fixed; signal normalised to SYTO60; only the binder purified.

For test [3], the target named is T1, human integrin αIIbβ3 in a stably transfected CHO cell line (human). The test can be described thus: co-IP; αIIbβ3 immunoprecipitated with anti-αIIbβ3 mAb and Protein G agarose from lysates of stably transfected CHO cells (Tris HCl pH 7.4, 150 mM NaCl, 1% NP40); washed beads incubated with purified PSG1 1 h at RT; western blot; sham transfected CHO lysate as control; only the binder purified.

No constants are given. Whether binding was seen depends on the method and setting. For part of these data: In cells and extracts the contact can be indirect. Some results given as binding are weak or reduced against the parent protein; the word gives no strength.

Consider “recombinant human PSG9 (from UniProt Q00887 35-426)”, for which, in test [1], the binding entry was “binds”.

“fluorescent PSG1 (PSG1–800), recombinant PSG1 labelled with Dylight-800 (from UniProt P11464 35-419)”: in test [2], the binding result is given as “binds”.

For “recombinant wildtype human PSG1 (pregnancy-specific glycoprotein 1, PSG1a) (from UniProt P11464-1 35-419)”, the binding entry in test [3] is on record as “binds”.

The record behind these values is PMC3585349.
